From PubChem BioAssay AID1508600 (Functional Genomics Laboratory (NCATS/FGL), 2020) come the findings set out here.

In all, about 53,000 sequences went through this assay and about 3,700 (7%) were called active.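 The calls were made as follows: active = gene knockdowns whose robust z-score for IL-1 alpha signal is at least 2 or at most -2, so actives lie on both sides; inactive = the rest.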 The list shows a part of the results.

The nature of the assay: Components of the Cytosolic LPS Sensing Pathway: Gene Identification via Genome-wide siRNA Screen.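 Also: robust z of the log signal after scaling to non-targeting control siRNA wells of the plate.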 The conditions noted are these: RAW264.7 macrophages, IL-1a HTRF, actives lie on both sides, screened at 100 nM (by protocol), cells primed 5 h with Pam3CSK4 first. In a few lines:
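RAW264.7; siRNA 100 nM final, RNAiMAX, 48h 37 degrees C; Pam3CSK4 5 h; LipidA + TransIT-TKO 24 h; IL-1a HTRF; CellTiter-Glo viability; robust z vs negative-control median.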
Consider GGUAGACACACACAUUCAUTT against Ampd3, for which the z-score was inactive: 0.633. In the case of CCAGAGGUCACGAUUACUUTT against Pcdha12 it was inactive: 0.0422; in that of GGAUCUUCAGGAAAACAGATT against Fam181b, inactive: -0.955. In the case of “GGCUGUAAAAAUUAGUAUGTT against A630001G21Rik” it was inactive: 0.423; in that of CCAUAUGAAAUCCCUGCAUTT against Irs3, inactive: 0.189; in that of GCACUCUUCUUCUCUAGCATT against Pramel27, inactive: 0.969. Then CCCUGGUUGUUUGUAGAGUTT against Armt1, with active: 2.38; and GUGAACAACAUCCAAGCGATT against Dhrs7c, with inactive: 0.183. On to GGCAGACCAUGAAUGCUGUTT against Kcna2, for which the z-score is inactive: -0.84. Then GGUGCUCACGUUUUUCUUATT against B3galnt1, with inactive: 0.348; and GGAUUCUCUUCCAUCUUACTT against Olfr266, with inactive: -1.31; and GCAGAUUCGGAAGUAAACATT against Rnf214, with inactive: 0.169. Then GGAGUAUUCAACAUUUGUATT against Trim11, with inactive: -0.523. For GCGUGCUGUGUAAGAGUGUTT against Gja4, the z-score is active: -2.5. Then GGAAGAUGAACAUCAAACATT against Dglucy, with inactive: 0.855.

As to “CGCAUACAUCAGUGUGGCATT against A730085E03Rik”, the z-score is inactive: -0.395. In the case of GGUGCUUUCCAGCUAUCCCTT against Acsm2 it was inactive: 0.804; in that of CGACAUGGAGAGAUGCACATT against Galnt14, inactive: -0.518; in that of CCCUCAAGGCUGAUAAACATT against Il17b, active: -2.26. For the sequence GGAUCGAAUGUACCAACGGTT against Rnase4, the z-score is inactive: -0.613. In the case of CCCACCUUAUGGGACAAAATT against Hlf it was active: 2.05. In the case of CCUAGCUGUUAGGAAGCAATT against Fat4 it was inactive: 0.0555.

As for GGAGAAUUGUUUUUACCAGTT against Bbox1, the z-score is inactive: 0.13. Consider GGCAAGGUGCUGAUUCCCUTT against Itga9, for which the z-score is inactive: 0.0779.

As for CCUUCAAAUGUGGGAGUCCTT against Dmac2, the z-score was inactive: -1.3.

For the sequence CCACAACAUUUGCUAAUAATT against Cysltr2, the z-score was inactive: -0.233.

Turning to GCAAAUCACACAUUCUCUGTT against Stk32b, the z-score was inactive: -0.00833. In the case of GGUAAUUAACAUGAAGUGUTT against Traf4 it was inactive: -1.34.

For the sequence GGGCCUCAAACAUCUGACUTT against Ccdc71, the z-score is inactive: -0.442. Then CCCUAGGCCUACCUAAUGATT against Tmem138, with inactive: -0.894; and GGUGGAUGUCUCAGCAUAATT against Pafah1b2, with inactive: 1.27. Then CGAGUUGUAUAGCAGCUCCTT against Dok2, with inactive: -0.573; and CCAUAAAUCAGCUAAAGCATT against Eea1, with inactive: 0.112; and GUUUUGUUUUUCCUCCAGUTT against Bcl9l, with inactive: 0.929.

For GGAAUAAAAGACCUUGGAUTT against Slc39a7, the z-score is inactive: 0.274. As to GACGGUACAUCUGCUCAUCTT against Galr3, the z-score was inactive: -0.88.

As to GGUUCUGCUCCAACCUUUGTT against Gtf2b, the z-score is inactive: 0.546. Regarding GCCUCUACUGGUUAUUUAATT against Slc22a15, the z-score was active: 2.09.

Take GGACCAGGUAGAGCAAUUUTT against Hpdl: the z-score was inactive: -0.52.

Regarding GGGCAAUUCUAUCAAAGAGTT against Gps1, the z-score is active: -2.14. In the case of GGAAAGGAUAUUAUUGUUCTT against Olfr907 it was inactive: -1.62; in that of GGCACAAGUCCAUGUUGUUTT against Emg1, inactive: -0.161; in that of GGCUAUGAUGACUUCAACUTT against Gnb3, inactive: -1.64. Then CCUCCUUUUAGACAGAUGCTT against Gm4983, with inactive: -0.276; and GGAUCUUUGGAGAAAGAGATT against Kcnc3, with inactive: 0.957; and GCAGUAUUACAAUAGGAUCTT against Magea9-ps, with inactive: 0.0318. On to GGAGACCAAAUAGCAUUUUTT against Olfr504, for which the z-score is inactive: 0.0671. For GCGAUUGCAAGAGGACCUATT against Gm11507, the z-score is inactive: 0.408. In the case of GCCCUGGAUCAUUGAGUGATT against Atp2b1 it was inactive: 0.749; in that of GCCGAAGCCCUAUUUAUUATT against Artn, inactive: 0.673. Then CGAUGGUAGAAUUCUUAGATT against Akap9, with inactive: -0.659; and CCUACACAUAUGAAGGAGUTT against Fabp2, with inactive: 0.069. In the case of GGAUGUAAUCCACUUCAAGTT against Acox3 it was inactive: 0.651.

On to GGAAGCGAACGAGACACUUTT against Pla2g4a, for which the z-score is inactive: -0.404. With GGAAAACAAGACUUCAAUCTT against Gypa, the z-score was inactive: 0.369. In the case of GGCAGAUCAGAAUUGAAUUTT against Fgd6 it was inactive: -0.528; in that of GGAAACACAGCAAUAGAUUTT against Cplx1, inactive: -0.00292; in that of GGAUCCUGCUCAAAAAAGUTT against Arxes1, inactive: -0.431.

For the sequence GCCUCCUACUGGUUCCAAATT against Commd7, the z-score is active: 2.05.

With GGCCAGUGUGUGGUCUAAGTT against Cd1d2, the z-score was inactive: 1.89.

As for GGAGUUGAUAAUAUGGUGGTT against Uck1, the z-score is inactive: 0.712. Then GGAUAUUCUUCUUAAGCAGTT against Agbl5, with inactive: -0.168.

With GCUAAACAGAACAGGUUGUTT against Pdpn, the z-score was inactive: 0.415. Then GGAAGAUAACAUCAACAAATT against Arl6ip5, with inactive: 0.702. With CGGACUCACAGAGCUAAGATT against Tnp2, the z-score was inactive: 1.56. Then GGCCGAAUUGUGUCUUGGUTT against Dnmt3a, with inactive: -1.71; and GGGUCUGGUUCUGUAACCATT against Pou4f3, with inactive: -1.94. Then GGAGACUGAGACUUUAGAGTT against Gadd45b, with inactive: -0.209; and GGGUGUAGAAAAGAAGAAATT against Gsap, with inactive: 0.685; and GCCCUAUACCUUAUUUAAUTT against Ros1, with inactive: 1.74.

Regarding CCCUACACGCAGGAGUUUUTT against Gtf3c1, the z-score was inactive: -0.23.

For GGAGUCAGUACUUCAAGAUTT against Zfp148, the z-score is inactive: -0.635. Then CGAUCGAUAAAUGUAAUGATT against Heatr5a, with inactive: -0.0662; and GGGAUGGGCUUCUGAAUAATT against Vmn1r205, with inactive: -0.00314; and GGAAGAACCACCUUCAUGCTT against Btn2a2, with inactive: 0.187. Regarding GGCUAUGUUACCAGAAAGCTT against Mfsd3, the z-score was inactive: -1.09. Then GCCUAUAUGGAACACUGGGTT against Mrps6, with inactive: 0.6. Then GCAAGACUCUACACAUCACTT against Nox4, with inactive: 0.0384; and GGAACAGUAUAUAAGUUCATT against Hcfc2, with inactive: -0.593; and CCUUUCUCAUGCUAUGGAGTT against Poc1b, with inactive: -0.853. In the case of GGAUGUCUAUAGUGAGAUUTT against Psg16 it was inactive: -0.0706; in that of GGAACACCUACAGUAUAAATT against Cdc123, inactive: -0.39. In the case of GGAGAGACUGACAAAAACCTT against Mrvi1, the z-score is inactive: -0.0504.

GGGUUUUGAAACAUGCAGGTT against Cd44: the z-score was inactive: -1.54.

With GGAUGACAAAAAUUUCAAGTT against St14, the z-score was inactive: -0.283. Then GCAGUUGCUAUGUUCUAUATT against Olfr1257, with inactive: -0.513; and CGACAAGGAAAGUUGAUGUTT against Hdac3, with inactive: -0.0618. Regarding GUACCUGAACUCAACUGAGTT against Ffar2, the z-score is inactive: -0.0572.

On to GGAGGAACAAUAAACUGUATT against Dcaf8l, for which the z-score was inactive: 0.321. Then CGGUUCAUCUGGGAGUAUGTT against Rerg, with inactive: -1.3; and CCCACUUGCUGAAAAUUGUTT against Ankib1, with inactive: -0.338; and GCAAGGGCAAGUCCACAAATT against Gjb3, with inactive: 0.428. In the case of CCCUAUGCAAUAUCAAAAUTT against Hnrnpa1 it was inactive: 1.22; in that of GCAACACGAAUAUCACAGGTT against Hadha, inactive: 0.356; in that of GGCAAGUGAGGAAAAGAGGTT against Setd1a, inactive: -0.741. In the case of GCAACCUCAUACCAAAGAGTT against Zfyve26 it was inactive: 0.211; in that of GGAGAAGAGCAUGCCUUUCTT against Lgals6, inactive: -0.138; in that of GCCAACUUUGCCAUUAAAATT against Rnf208, inactive: -0.376. On to CCUUCUGGUGCUUUUAGAGTT against Tlm, for which the z-score is inactive: -0.486. In the case of CCGUAAGAAGGAAAACGCATT against Kcnd1 it was inactive: -0.506; in that of GGGACUUGAGUAGCUGACUTT against Sgta, inactive: -1.49; in that of GGACUCUGGACCUUAUGCUTT against Tmem202, inactive: -0.921. Then GGCGAUAACUGUCGAUACUTT against Mkrn1, with inactive: 0.524; and GGAGCUUCUUUUCCCUCUATT against Gcgr, with inactive: -0.684. In the case of GCAAGAGGUCUGAAGUAUGTT against Pde4dip it was inactive: 0.0997; in that of GGGUUUUGCUAUGUGGCCUTT against Farsa, inactive: -1.18.
